Reference: paper PMC2279149, “Mouse N-acetyltransferase type 2, the homologue of human N-acetyltransferase type 1” (Biochemical Pharmacology, 2008)

Molecular target: T1, mouse Nat2 (Mus musculus, UniProt P50295)
T1 construct: The mouse Nat2 open-reading frame [22] was sub-cloned into pET28b(+); hexa-histidine tag (His-tag, from pET28b(+)) (N, cleaved yes); made in house; host or cells: Escherichia coli Rosetta(DE3)pLysS
T1 sequence (P50295 1-290): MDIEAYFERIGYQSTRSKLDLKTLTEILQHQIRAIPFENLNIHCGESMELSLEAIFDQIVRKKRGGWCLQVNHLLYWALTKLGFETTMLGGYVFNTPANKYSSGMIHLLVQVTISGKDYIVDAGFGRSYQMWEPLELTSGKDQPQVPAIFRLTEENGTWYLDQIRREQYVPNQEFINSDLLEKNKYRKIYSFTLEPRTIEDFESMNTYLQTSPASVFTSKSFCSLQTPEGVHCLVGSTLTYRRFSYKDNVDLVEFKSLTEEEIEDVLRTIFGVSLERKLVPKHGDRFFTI
Experiment: Inhibition of mouse Nat2 acetylation of PABA (colorimetric DMAB assay)
Format: biochemical
Conditions: xenobiotic oestrogens; recombinant mouse Nat2 3 ng, PABA 75 μM, AcCoA 400 μM, 37 °C; read-out: IC50 mNAT2
Protocol: The rates of arylamine acetylation by NATs were determined colorimetrically as previously described, but with minor modifications. Each assay contained the enzyme, arylamine substrate (see each figure legends for concentrations) and AcCoA (400 μM) in a total volume of 100 μL in assay buffer (20 mM Tris–HCl (pH 8.0), 1 mM DTT). Initially, the enzyme and substrate mixtures were pre-incubated at 25 °C for 5 min and AcCoA was added to start the reaction. The reaction was quenched using 20% (w/v) trichloroacetic acid (TCA) at different time intervals. The stopped reaction was centrifuged (16,000 × […], 10 min) to pellet the precipitated proteins. […] The absorption at 450 nm was measured with a Hitachi U-2001 UV–vis spectrophotometer, with the amount of residual substrate in the reaction was determined by comparison with a standard curve.
The inhibitory effect of steroids on the rate of acetylation of arylamines by mouse Nat2 was measured by using the colorimetric DMAB assay as described in Section 2. […] The colour was developed and measured as described in Section 2. The linear initial rate of reaction was determined and the percentage inhibition was calculated relative to the control activity measured without the inhibitor. All measurements were performed in triplicate and are expressed as mean ± standard deviation. *2% (v/v) ethanol **5% (v/v) DMSO used to dissolve the compounds in the assay.

With `CC/C(=C(\c1ccccc1)c1ccc(OCCN(C)C)cc1)c1ccccc1` [Tamoxifen] the IC50 was 57 ± 3 µM.
